Source: the supplement of paper PMC4604168 (melanoma cell lines)
This is one part of the list. Single values are uncertain, as repeats are few or missing.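 Imaging used 1,536-well plates; nuclei positive for cleaved PARP by antibody were divided by total DNA-stained nuclei to yield the apoptosis fraction. Doses for screening kept most cells viable, and cell lines differ markedly in resting and induced cleaved-PARP levels.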

tested on: A101D; assay: cleaved PARP positive nuclei fraction relative to DMSO control; melanoma cells; higher = more apoptosis; settings: library dose: low library concentration; 72 h

| Structure (SMILES) | cleaved PARP positive nuclei fraction |
| --- | --- |
| Nc1ccn([C@@H]2O[C@H](CO)[C@@H](O)C2(F)F)c(=O)n1 [gemcitabine] + O=S(=O)(c1ccccc1)N(CC(F)(F)F)c1ccc(C(O)(C(F)(F)F)C(F)(F)F)cc1 [T0901317] (first compound 0.0004 µM, partner dose 1.4 µM) | 58.2% |
| Nc1ncn([C@H]2C[C@H](O)[C@@H](CO)O2)c(=O)n1 [decitabine] + O=C(Nc1ccccc1)c1cc([N+](=O)[O-])ccc1Cl [GW9662] (first compound 0.1 µM, partner dose 2 µM) | 55.3% |
| Nc1nc(F)nc2c1ncn2[C@@H]1O[C@H](CO)[C@@H](O)[C@@H]1O [fludarabine] + Cn1cc(/C=C2\C(=O)Nc3cccnc32)c2ccccc21 [GW441756] (first compound 0.2 µM, partner dose 0.4 µM) | 30.9% |
| Nc1ccn([C@@H]2O[C@H](CO)[C@@H](O)C2(F)F)c(=O)n1 [gemcitabine] + CCN(CC)CCCCNc1ncc2cc(-c3cc(OC)cc(OC)c3)c(NC(=O)NC(C)(C)C)nc2n1 [PD173074] (first compound 0.0004 µM, partner dose 0.1 µM) | 25.4% |
| CCCS(=O)(=O)Nc1ccc(F)c(C(=O)c2c[nH]c3ncc(Cl)cc23)c1F + COc1ccc(COc2ccc(Cc3cnc(N)nc3N)cc2OC)cc1 [GW2580] (first compound 0.08 µM, partner dose 1 µM) | 19.8% |
| Nc1ccn([C@@H]2O[C@H](CO)[C@@H](O)C2(F)F)c(=O)n1 [gemcitabine] + CCc1ccc(CCOc2ccc(CC3SC(=O)NC3=O)cc2)nc1 [pioglitazone] (first compound 0.0004 µM, partner dose 2 µM) | 29.1% |
| Nc1ncn([C@H]2C[C@H](O)[C@@H](CO)O2)c(=O)n1 [decitabine] + Oc1cc(-c2nc(-c3ccccc3)[nH]c2-c2ccncc2)ccc1Cl [L779450] (first compound 0.1 µM, partner dose 0.2 µM) | 32.9% |
| CNC(=O)c1cc(Oc2ccc(NC(=O)Nc3ccc(Cl)c(C(F)(F)F)c3)cc2)ccn1 [sorafenib] + Cc1cc([N+](=O)[O-])ccc1NS(=O)(=O)c1cc(Cl)ccc1Cl [FH535] (first compound 0.4 µM, partner dose 1 µM) | 24.2% |
| O=C(O)c1ccc2c(c1)nc(Nc1cccc(Cl)c1)c1ccncc12 + N#Cc1c(O)c2c(-c3ccc(-c4ccccc4O)cc3)csc2[nH]c1=O [A769662] (first compound 0.4 µM, partner dose 2 µM) | 55.9% |
| Nc1ccn([C@@H]2O[C@H](CO)[C@@H](O)C2(F)F)c(=O)n1 [gemcitabine] + COc1ccc(COc2ccc(Cc3cnc(N)nc3N)cc2OC)cc1 [GW2580] (first compound 0.0004 µM, partner dose 1 µM) | 39.2% |
| Nc1ncn([C@H]2C[C@H](O)[C@@H](CO)O2)c(=O)n1 [decitabine] + O=C1NC(=O)/C(=C/c2ccc(-c3ccc(F)cc3O)o2)S1 [AS252424] (first compound 0.1 µM, partner dose 1 µM) | 8.95% |
| CCCS(=O)(=O)Nc1ccc(F)c(C(=O)c2c[nH]c3ncc(Cl)cc23)c1F + Cn1cc(/C=C2\C(=O)Nc3cccnc32)c2ccccc21 [GW441756] (first compound 0.08 µM, partner dose 0.4 µM) | 35.4% |
| Cc1cc(Nc2cc(N3CCN(C)CC3)nc(/C=C/c3ccccc3)n2)n[nH]1 + O=c1cc(-c2cccc3c2Sc2ccccc2S3)oc(N2CCOCC2)c1 [KU55933] (first compound 0.04 µM, partner dose 1 µM) | 19% |
| Cn1c(=O)n(-c2ccc(C(C)(C)C#N)cc2)c2c3cc(-c4cnc5ccccc5c4)ccc3ncc21 + COc1cc2ncnc(Nc3ccc(Oc4ccccc4)cc3)c2cc1OC [SrcI1] (first compound 0.004 µM, partner dose 2 µM) | 23% |
| Cc1cc(Nc2cc(N3CCN(C)CC3)nc(/C=C/c3ccccc3)n2)n[nH]1 + O=S(=O)(c1ccccc1)N(CC(F)(F)F)c1ccc(C(O)(C(F)(F)F)C(F)(F)F)cc1 [T0901317] (first compound 0.04 µM, partner dose 1.4 µM) | 36.6% |
| CCCS(=O)(=O)Nc1ccc(F)c(C(=O)c2c[nH]c3ncc(Cl)cc23)c1F + O=C1NC(=O)/C(=C/c2ccc(-c3ccc(F)cc3O)o2)S1 [AS252424] (first compound 0.08 µM, partner dose 1 µM) | 33.2% |

| Structure (SMILES) | cleaved PARP positive nuclei fraction |
| --- | --- |
| Cn1c(=O)n(-c2ccc(C(C)(C)C#N)cc2)c2c3cc(-c4cnc5ccccc5c4)ccc3ncc21 + CC(C)CCN1c2nc(Nc3cc(F)c(O)c(F)c3)ncc2N(C)C(=O)C1C [BID1870] (first compound 0.004 µM, partner dose 0.2 µM) | 75% |
| CN1CCN(c2ccc3nc(-c4c(N)c5c(F)cccc5[nH]c4=O)[nH]c3c2)CC1 [Dovitinib] + Oc1cc(-c2nc(-c3ccccc3)[nH]c2-c2ccncc2)ccc1Cl [L779450] (first compound 0.1 µM, partner dose 0.2 µM) | 38.1% |
| Nc1nc(F)nc2c1ncn2[C@@H]1O[C@H](CO)[C@@H](O)[C@@H]1O [fludarabine] + COc1cc(N2CCC(N3CCN(C)CC3)CC2)ccc1Nc1ncc(Cl)c(Nc2ccccc2S(=O)(=O)C(C)C)n1 [NVP-TAE684] (first compound 0.2 µM, partner dose 0.08 µM) | 28.9% |
| Nc1ncn([C@H]2C[C@H](O)[C@@H](CO)O2)c(=O)n1 [decitabine] + COc1ccc(-c2ccc3c(N4CCOCC4)nc(N4C[C@@H](C)O[C@@H](C)C4)nc3n2)cc1CO [KU0063794] (first compound 0.1 µM, partner dose 0.02 µM) | 29% |
| CCCS(=O)(=O)Nc1ccc(F)c(C(=O)c2c[nH]c3ncc(Cl)cc23)c1F + Oc1cc(-c2nc(-c3ccccc3)[nH]c2-c2ccncc2)ccc1Cl [L779450] (first compound 0.08 µM, partner dose 0.2 µM) | 40.4% |
| C=C(c1ccc(C(=O)O)cc1)c1cc2c(cc1C)C(C)(C)CCC2(C)C [Bexarotene] + CCCCCCCCCCCC1=C(O)C(=O)C=C(O)C1=O [Embelin] (first compound 2 µM, partner dose 1.2 µM) | 24.8% |
| O=C(O)c1ccc2c(c1)nc(Nc1cccc(Cl)c1)c1ccncc12 + Oc1nc(-c2ccc(C(F)(F)F)cc2)nc2c1CSCC2 [XAV939] (first compound 0.4 µM, partner dose 2 µM) | 32.3% |
| C=C(c1ccc(C(=O)O)cc1)c1cc2c(cc1C)C(C)(C)CCC2(C)C [Bexarotene] + COC(=O)c1sccc1S(=O)(=O)Nc1ccc(Nc2ccccc2)cc1OC [GSK0660] (first compound 2 µM, partner dose 1 µM) | 19.6% |
| Nc1nc(F)nc2c1ncn2[C@@H]1O[C@H](CO)[C@@H](O)[C@@H]1O [fludarabine] + COc1ccc2c(c1)CCC1C2CCC2(C)C(NCCCCCCN3C(=O)C=CC3=O)CCC12 [U73122] (first compound 0.2 µM, partner dose 0.4 µM) | 20.1% |
| O=C(O)[C@@H]1[O][Sb](=[O])([O][Sb]2(=[O])[O][C@H]([C@H](O)CO)[C@H](O)[C@H](C(=O)O)[O]2)[O][C@H]([C@H](O)CO)[C@@H]1O (some centres not stated) [stibogluconate] + O=C(O)C(=O)Nc1sc2c(c1C(=O)O)CCNC2 [TCS401] (first compound 2 µM, partner dose 1.66667 µM) | 27% |
| C=C(c1ccc(C(=O)O)cc1)c1cc2c(cc1C)C(C)(C)CCC2(C)C [Bexarotene] + Cc1cc([N+](=O)[O-])ccc1NS(=O)(=O)c1cc(Cl)ccc1Cl [FH535] (first compound 2 µM, partner dose 1 µM) | 41.5% |
| C=C(c1ccc(C(=O)O)cc1)c1cc2c(cc1C)C(C)(C)CCC2(C)C [Bexarotene] + COc1ccc(COc2ccc(Cc3cnc(N)nc3N)cc2OC)cc1 [GW2580] (first compound 2 µM, partner dose 1 µM) | 22.9% |
| Nc1nc(F)nc2c1ncn2[C@@H]1O[C@H](CO)[C@@H](O)[C@@H]1O [fludarabine] + O=C(Nc1ccccc1)c1cc([N+](=O)[O-])ccc1Cl [GW9662] (first compound 0.2 µM, partner dose 2 µM) | 38.4% |
| CC(C)C[C@H](NC(=O)[C@H](Cc1ccccc1)NC(=O)c1cnccn1)B(O)O [Bortezomib] + COC(=O)c1sccc1S(=O)(=O)Nc1ccc(Nc2ccccc2)cc1OC [GSK0660] (first compound 0.001 µM, partner dose 1 µM) | 105% |
| CN1CCN(c2ccc3nc(-c4c(N)c5c(F)cccc5[nH]c4=O)[nH]c3c2)CC1 [Dovitinib] + COc1ccc(COc2ccc(Cc3cnc(N)nc3N)cc2OC)cc1 [GW2580] (first compound 0.1 µM, partner dose 1 µM) | 25% |
| Cn1c(=O)n(-c2ccc(C(C)(C)C#N)cc2)c2c3cc(-c4cnc5ccccc5c4)ccc3ncc21 + Cc1cc([N+](=O)[O-])ccc1NS(=O)(=O)c1cc(Cl)ccc1Cl [FH535] (first compound 0.004 µM, partner dose 1 µM) | 25.5% |

As a working copy, part of the list above:

| Structure (SMILES) | cleaved PARP positive nuclei fraction |
| --- | --- |
| C=C(c1ccc(C(=O)O)cc1)c1cc2c(cc1C)C(C)(C)CCC2(C)C [Bexarotene] + CCCCCCCCCCCC1=C(O)C(=O)C=C(O)C1=O [Embelin] (first compound 2 µM, partner dose 1.2 µM) | 24.8% |
| O=C(O)c1ccc2c(c1)nc(Nc1cccc(Cl)c1)c1ccncc12 + Oc1nc(-c2ccc(C(F)(F)F)cc2)nc2c1CSCC2 [XAV939] (first compound 0.4 µM, partner dose 2 µM) | 32.3% |
